± gives the standard deviation of the averaged measurements. This is one part of the list. The data scatter; read single values as rough.

These results are taken from the supplement of paper PMC7238544.

In assay [1] the test system is hAMSC donor 1. The experiment in a line: Hoechst total cell count ratio vs vehicle control; higher = more cells (less toxicity).
Assay [2] deals with hAMSC donor 2. The description is as above.
Assay [3] deals with hAMSC donor 1. The experiment in a line: transgenic luciferase activity (RLU/mg protein) fold change vs vehicle control (ratio); higher = more transgene expression.
Assay [4] relates to hAMSC donor 2. The description is as above.
Assay [5] concerns hAMSC donor 1. The experiment in a line: transfection efficiency (EGFP+ cells / Hoechst count) fold change vs vehicle control (ratio); hAMSC are human adipose-derived mesenchymal stem cells given an EGFP-luciferase plasmid by lipofection; higher = enhanced transfection.
For assay [6], the system named is hAMSC donor 2. Described as above.
Where [7] appears, read: priming compound concentration 0.2 µM.
Where [8] appears, read: priming compound concentration 1.7 µM.
The mark [9] stands for this setting: priming compound concentration 13 µM.

In the case of `CN(C)CCOC(C)(c1ccccc1)c1ccccn1` (configuration not stated) [Doxylamine succinate], the “Hoechst total cell count ratio” value in assay [1] (setting [7]) was 1.24 ± 0.13; in assay [1] (setting [8]), 1.1 ± 0.19; in assay [1] (setting [9]), 0.976 ± 0.076; in assay [2] (setting [7]) it was 0.875 ± 0.28; in assay [2] (setting [8]) it was 0.844 ± 0.14; in assay [2] (setting [9]) it was 1.53 ± 0.34. Also, the transgenic luciferase activity in assay [3] (setting [8]) amounted to 1.8 ± 0.56; in assay [4] (setting [7]), 0.619 ± 0.3; in assay [4] (setting [8]) it was 1.47 ± 0.43; in assay [4] (setting [9]) it was 0.233 ± 0.19. Besides, the transfection efficiency in assay [5] (setting [7]) amounted to 0.967 ± 0.16; in assay [5] (setting [8]) it was 1.61 ± 0.12; in assay [5] (setting [9]), 1.01 ± 0.29; in assay [6] (setting [7]), 1.55 ± 0.1; in assay [6] (setting [8]), 1.26 ± 0.18; in assay [6] (setting [9]) it was 1.2 ± 0.66.

For the compound `CC=CC(=O)N(CC)c1ccccc1C` [Crotamiton], the “Hoechst total cell count ratio” value amounted to 1.37 ± 0.26 in assay [1] (setting [7]); 1.09 ± 0.056 in assay [1] (setting [8]); 0.859 ± 0.1 in assay [1] (setting [9]); 1.13 ± 0.33 in assay [2] (setting [7]); 0.96 ± 0.2 in assay [2] (setting [8]); 1.11 ± 0.44 in assay [2] (setting [9]). The transgenic luciferase activity turned out to be 1.37 ± 0.52 in assay [3] (setting [8]), 0.44 ± 0.095 in assay [4] (setting [7]), 0.882 ± 0.52 in assay [4] (setting [8]) and 0.18 ± 0.1 in assay [4] (setting [9]). The transfection efficiency was found to be 1.33 ± 0.37 in assay [5] (setting [7]); 1.36 ± 0.12 in assay [5] (setting [8]); 1.43 ± 0.26 in assay [5] (setting [9]); 0.98 ± 0.23 in assay [6] (setting [7]); 1.03 ± 0.056 in assay [6] (setting [8]); 1.1 ± 0.55 in assay [6] (setting [9]).

Take `CCOC(=O)C1=C(C)NC(C)=C(C(=O)OC)C1c1cccc([N+](=O)[O-])c1` (configuration not stated) [Nitrendipine]: the “Hoechst total cell count ratio” value was found to be 1.36 ± 0.16 in assay [1] (setting [7]); 1.11 ± 0.13 in assay [1] (setting [8]); 0.701 ± 0.078 in assay [1] (setting [9]); 1.29 ± 0.58 in assay [2] (setting [7]); 0.939 ± 0.15 in assay [2] (setting [8]); 1.49 ± 0.43 in assay [2] (setting [9]). The transgenic luciferase activity in assay [3] (setting [8]) came out at 1.64 ± 1.3; in assay [4] (setting [7]), 0.485 ± 0.049; in assay [4] (setting [8]) it was 0.335 ± 0.025; in assay [4] (setting [9]), 0.0889 ± 0.038. The transfection efficiency was found to be 1.47 ± 0.4 in assay [5] (setting [7]); 1.26 ± 0.28 in assay [5] (setting [8]); 1.33 ± 0.21 in assay [5] (setting [9]); 1.3 ± 0.43 in assay [6] (setting [7]); 1.01 ± 0.056 in assay [6] (setting [8]); 1.09 ± 0.067 in assay [6] (setting [9]).

As to `CO[C@H]1/C=C/O[C@@]2(C)Oc3c(C)c(O)c4c(O)c(c(/C=N/N5CCN(C6CCCC6)CC5)c(O)c4c3C2=O)NC(=O)/C(C)=C\C=C\[C@H](C)[C@H](O)[C@@H](C)[C@@H](O)[C@@H](C)[C@H](OC(C)=O)[C@@H]1C` [Rifapentine], the “Hoechst total cell count ratio” value in assay [1] (setting [7]) is 1.22 ± 0.25; in assay [1] (setting [8]), 1.55 ± 0.082; in assay [1] (setting [9]), 1.64 ± 0.072; in assay [2] (setting [7]), 1.08 ± 0.036; in assay [2] (setting [8]) it was 1.11 ± 0.043; in assay [2] (setting [9]), 1.5 ± 0.17. In addition, the transgenic luciferase activity worked out at 0.289 ± 0.062 in assay [3] (setting [9]), 1.07 ± 0.05 in assay [4] (setting [7]), 0.57 ± 0.1 in assay [4] (setting [8]) and 0.392 ± 0.082 in assay [4] (setting [9]). The transfection efficiency in assay [5] (setting [7]) turned out to be 0.903 ± 0.19; in assay [5] (setting [8]), 0.863 ± 0.038; in assay [5] (setting [9]), 0.358 ± 0.1; in assay [6] (setting [7]), 1.14 ± 0.15; in assay [6] (setting [8]), 0.766 ± 0.083; in assay [6] (setting [9]), 0.272 ± 0.11.

As to `Cc1onc(-c2ccccc2)c1C(=O)N[C@@H]1C(=O)N2[C@@H]1SC(C)(C)[C@@H]2C(=O)O` [Oxacillin sodium], the “Hoechst total cell count ratio” value turned out to be 1.3 ± 0.14 in assay [1] (setting [7]); 1.55 ± 0.21 in assay [1] (setting [8]); 1.09 ± 0.17 in assay [1] (setting [9]); 1.12 ± 0.054 in assay [2] (setting [7]); 1.15 ± 0.12 in assay [2] (setting [8]); 1.21 ± 0.041 in assay [2] (setting [9]). The transgenic luciferase activity is 1.37 ± 0.24 in assay [3] (setting [9]), 0.564 ± 0.045 in assay [4] (setting [7]), 0.658 ± 0.034 in assay [4] (setting [8]) and 0.652 ± 0.13 in assay [4] (setting [9]). Further, the transfection efficiency in assay [5] (setting [7]) is 0.929 ± 0.21; in assay [5] (setting [8]), 0.865 ± 0.28; in assay [5] (setting [9]), 1.7 ± 0.39; in assay [6] (setting [7]) it was 0.853 ± 0.18; in assay [6] (setting [8]), 0.895 ± 0.12; in assay [6] (setting [9]), 0.833 ± 0.042.

As to `CCOC(=O)C1=C(C)NC(C)=C(C(=O)OC)C1c1cccc(Cl)c1Cl` (configuration not stated) [Felodipine], the “Hoechst total cell count ratio” value worked out at 1.39 ± 0.17 in assay [1] (setting [7]); 1.49 ± 0.072 in assay [1] (setting [8]); 0.997 ± 0.12 in assay [1] (setting [9]); 1.06 ± 0.075 in assay [2] (setting [7]); 0.981 ± 0.061 in assay [2] (setting [8]); 1.06 ± 0.033 in assay [2] (setting [9]). Also, the transgenic luciferase activity in assay [3] (setting [9]) was found to be 1.49 ± 0.79; in assay [4] (setting [7]), 0.66 ± 0.16; in assay [4] (setting [8]), 0.788 ± 0.065; in assay [4] (setting [9]), 0.565 ± 0.38. Moreover, the transfection efficiency came out at 0.785 ± 0.28 in assay [5] (setting [7]); 0.676 ± 0.096 in assay [5] (setting [8]); 1.49 ± 0.17 in assay [5] (setting [9]); 1 ± 0.18 in assay [6] (setting [7]); 1.23 ± 0.13 in assay [6] (setting [8]); 1.06 ± 0.087 in assay [6] (setting [9]).

For the compound `CCCN(CCC)S(=O)(=O)c1ccc(C(=O)O)cc1` [Probenecid], the “Hoechst total cell count ratio” value in assay [1] (setting [7]) came out at 1.28 ± 0.16; in assay [1] (setting [8]) it was 1.41 ± 0.17; in assay [1] (setting [9]) it was 1.39 ± 0.084; in assay [2] (setting [7]), 1.13 ± 0.018; in assay [2] (setting [8]), 1.06 ± 0.069; in assay [2] (setting [9]), 1.12 ± 0.15. In addition, the transgenic luciferase activity in assay [3] (setting [9]) turned out to be 0.683 ± 0.28; in assay [4] (setting [7]), 0.586 ± 0.011; in assay [4] (setting [8]), 0.879 ± 0.19; in assay [4] (setting [9]), 0.525 ± 0.06. Besides, the transfection efficiency in assay [5] (setting [7]) came out at 0.789 ± 0.11; in assay [5] (setting [8]), 1.42 ± 0.15; in assay [5] (setting [9]) it was 1.09 ± 0.086; in assay [6] (setting [7]), 0.811 ± 0.19; in assay [6] (setting [8]) it was 1.19 ± 0.038; in assay [6] (setting [9]) it was 1.15 ± 0.24.
